The text below walks through data of patent US20210246886A1, “Fluorosulfones” (3M INNOVATIVE PROPERTIES COMPANY, priority 2018, published 2021).

Data set [1] in a line: Atmospheric lifetime from relative rate studies with hydroxyl radicals in a laboratory chamber.
For data set [2] the following is noted: cited from earlier work.
A short description of data set [3]: Global Warming Potential by IPCC AR5 method (radiative efficiency from FTIR combined with atmospheric lifetime). As to conditions: with stratospheric temperature adjustment and lifetime correction.

Read-outs that look alike come from different tables or passages of the source.

In the case of `COC(F)(C(F)(F)C(F)(F)F)C(F)(C(F)(F)F)C(F)(F)F` (stereo not drawn) [CE2], in data set [1], the “Atmospheric Lifetime” value is 3.8 yr.

Regarding `FS(F)(F)(F)(F)F` [SF6, sulfur hexafluoride, reference compound], the GWP in data set [2] (times that of CO2 (100 year ITH)) was 22,200.

For the compound “1,1,1,2,2-pentafluoro-2-((trifluoromethyl)sulfonyl)ethane [Example 6]”, the “Atmospheric Lifetime” value in data set [1] is listed as 8.2 yr.

Take `FC(F)(F)C(F)(F)C(F)(F)C(F)(F)C(F)(F)C(F)(F)F` [CE9]: the GWP in data set [2] (100 yr ITH) is listed as 9000.

On to `O=S(=O)(C(F)(F)C(F)(F)F)C(F)(F)C(F)(F)C(F)(F)C(F)(F)F` [Example 4, 1,1,1,2,2,3,3,4,4-nonafluoro-4-((perfluoroethyl)sulfonyl)butane], for which the “Atmospheric Lifetime” value in data set [1] came out at 10 yr.

Regarding `O=S(=O)(C(F)(F)C(F)(F)F)C(F)(F)C(F)(F)F` [Example 3, Perfluorodiethylsulfone], the “Atmospheric Lifetime” value in data set [1] came to 10 yr; in data set [1] (relative rate vs chloromethane reference, reaction with hydroxyl radicals), 10 years. Moreover, in data set [3], the radiative efficiency worked out at 0.282 Wm^−2 ppbV^−1.

For the compound `FC(F)(F)C(F)(F)C(F)(F)N(C(F)(F)C(F)(F)C(F)(F)F)C(F)(F)C(F)(F)C(F)(F)F` [CE4], the “Atmospheric Lifetime” value in data set [1] was 2,000 yr.
